Some of the results follow. Some tests of the compounds listed are not included; inactive here does not mean inactive elsewhere.
Assay: enhancers of HSV replication in host cells, fold increase, host cell viability (AID 1956); also: tested in PC3 cells
Conditions: HSV replication augmentation in cells; fold increase: measured here: primary screen fold increase 10 uM, at 10 µM, stronger effect = higher value; viability: measured here: host cell viability series, at 25 µM, stronger effect = lower value
For `COc1cccc(C(=O)NCC2(N3CCCCC3)CCCCC2)c1`, the fold increase was 0.95.
With `COc1ccc(Br)c(C(=O)NCC2(N3CCCCC3)CCCCC2)c1` the fold increase was 1.05.
Work on `CN(C)c1cccc(C(=O)NCC2(N(C)C)CCCCC2)c1` yielded a fold increase of 0.92.
Compound `O=C(OC1CN2CCC1CC2)C(CO)(c1ccccc1)c1ccccc1` (configuration not stated) has a fold increase of 0.82.
In the case of `CC(C)N1C(=O)CC2(CCN(CCOC(=O)C(O)(c3ccccc3)c3ccccc3)CC2)C1=O`, the fold increase is reported as 0.93.
Compound `CCN(CC)CC(C)C(C)OC(=O)C(O)(c1ccccc1)c1ccccc1` (configuration not stated) has a fold increase of 0.87.
Compound `O=C(NCC1(N2CCCCC2)CCCCC1)c1cc([N+](=O)[O-])ccc1Cl` has a fold increase of 1.51 and a viability of 94.5%.
Work on `C=CCN1CCN(CCOC(=O)C(O)(c2ccccc2)c2ccccc2)CC1` yielded a fold increase of 0.99.
With `CCN1CCCC(OC(=O)C2(O)c3ccccc3C=Cc3ccccc32)C1` (configuration not stated) the fold increase was 0.84.
Work on `Cc1ccccc1C(=O)NCC1(N2CCCCC2)CCCCC1` yielded a fold increase of 1.14.
`CN(C)C1CCCC1OC(=O)C(O)(c1ccccc1)c1ccccc1` (configuration not stated) gave a fold increase of 1.07.

Reference: PubChem BioAssay AID1956 (SRMLSC, 2009)
